Measurements: patent publication US20080038257A1
Results are given in words; binding and its absence hold for the method and conditions named. Some entries that bind do so weakly or less than the wild type.

Sequences of proteins named here, by UniProt entry; tags and fusion partners are left off. A change or cut given only in a name is not applied to a line headed by its entry. Residues count along the entry.
UniProt P14210, residues 32-728: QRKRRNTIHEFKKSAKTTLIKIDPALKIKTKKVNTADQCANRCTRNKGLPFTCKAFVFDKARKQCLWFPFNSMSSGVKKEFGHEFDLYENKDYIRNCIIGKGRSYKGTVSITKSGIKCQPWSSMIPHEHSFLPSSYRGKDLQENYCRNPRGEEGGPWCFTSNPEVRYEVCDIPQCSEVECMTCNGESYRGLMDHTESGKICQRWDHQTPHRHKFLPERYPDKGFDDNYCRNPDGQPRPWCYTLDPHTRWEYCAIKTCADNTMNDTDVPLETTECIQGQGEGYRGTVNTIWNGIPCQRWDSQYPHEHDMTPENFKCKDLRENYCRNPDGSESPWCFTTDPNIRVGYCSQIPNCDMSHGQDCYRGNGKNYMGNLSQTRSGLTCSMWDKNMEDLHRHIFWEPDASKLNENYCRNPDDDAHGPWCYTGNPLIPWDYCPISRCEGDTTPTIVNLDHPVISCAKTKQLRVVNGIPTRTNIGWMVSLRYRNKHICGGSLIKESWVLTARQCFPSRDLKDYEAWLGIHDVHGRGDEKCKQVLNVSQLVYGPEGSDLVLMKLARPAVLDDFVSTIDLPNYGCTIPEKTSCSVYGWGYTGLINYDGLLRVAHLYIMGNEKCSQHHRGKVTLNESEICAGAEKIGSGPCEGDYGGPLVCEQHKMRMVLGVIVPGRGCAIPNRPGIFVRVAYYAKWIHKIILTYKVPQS
UniProt Q08048: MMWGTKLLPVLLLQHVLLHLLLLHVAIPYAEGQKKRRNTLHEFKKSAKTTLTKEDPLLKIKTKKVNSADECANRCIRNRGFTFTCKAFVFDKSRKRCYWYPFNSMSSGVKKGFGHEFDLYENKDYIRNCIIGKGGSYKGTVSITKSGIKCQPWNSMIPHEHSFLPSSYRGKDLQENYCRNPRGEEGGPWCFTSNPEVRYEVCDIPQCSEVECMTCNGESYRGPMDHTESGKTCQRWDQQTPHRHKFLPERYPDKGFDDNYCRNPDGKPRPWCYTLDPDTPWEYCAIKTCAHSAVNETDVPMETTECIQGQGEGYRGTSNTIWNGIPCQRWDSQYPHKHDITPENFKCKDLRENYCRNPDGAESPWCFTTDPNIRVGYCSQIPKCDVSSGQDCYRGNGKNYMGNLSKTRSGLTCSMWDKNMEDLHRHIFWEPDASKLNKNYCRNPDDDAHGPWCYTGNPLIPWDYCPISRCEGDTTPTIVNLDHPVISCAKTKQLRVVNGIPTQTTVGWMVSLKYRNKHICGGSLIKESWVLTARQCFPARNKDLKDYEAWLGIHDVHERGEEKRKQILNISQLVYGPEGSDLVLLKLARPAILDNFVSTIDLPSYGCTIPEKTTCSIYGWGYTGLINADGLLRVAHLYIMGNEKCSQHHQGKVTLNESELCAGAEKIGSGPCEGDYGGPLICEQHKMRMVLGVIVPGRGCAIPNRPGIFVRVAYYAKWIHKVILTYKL

Columns and labels:
[1] = target: human HGF (recombinant hHGF protein of Example 3) (human) (UniProt P14210); assay: SPR, immobilised antibody, 25 C, yes/no
[2] = target: reduced recombinant hHGF (human) (UniProt P14210); assay: immunoblot, reduced SDS-PAGE, antibody 5 µg/mL, exposure 3-5 min
[3] = target: reduced recombinant hHGF (human) (UniProt P14210); assay: immunoblot, reduced SDS-PAGE
[4] = target: human HGF (recombinant hHGF protein of Example 3) (human) (UniProt P14210); assay: SPR, immobilised antibody, 25 C
[5] = target: mouse-human-mouse chimeric HGF containing human V495-L585 (mouse HGF with human HGF V495-L585) (UniProt Q08048); assay: SPR, immobilised antibody, 25 C, yes/no
[6] = target: mouse-human-mouse chimeric HGF containing human V495-L585 (mouse HGF with human HGF V495-L585) (UniProt Q08048); assay: SPR, immobilised antibody, 25 C

binding [1]	binding [2]	binding [3]	binding [4]	binding [5]	binding [6]	Binder
binds	binds	binds	binds	–	–	anti-hHGF monoclonal antibody 2F8 (antibody, mouse IgG1, kappa, V domains shown) VH: QVQLKQSGAELVRPGTSVKMSCKASGYTFTTYYIHWVNQRPGQGLEWIGKIGPGSGSTYYNEMFKDKATLTVDTSSSTAYMQLSSLTSDDSAVYFCARRGLGRGFDYWGQGTTLTVSS VL: DIVLTQSPASLAVSLGQRATISCKASQSVDYDGNSYINWYQQKPGQPPKVLIYVASNLESGIPARFSGSGSGTDFTLNIHPVEEEDAATYYCQQSIEDPPTFGAGTKLELKR
binds	binds	binds	binds	–	–	anti-hHGF monoclonal antibody 3B6 (antibody, mouse IgG1, kappa, V domains shown) VH: QVQLQQSGAELVRPGSSVKISCKASGYVFSSYWMNWVKQRPGQGLEWIGQIYPGDGDSNYNGNFKGKATLTADKSSSTAYMQLSSLTSEDSAVYFCASQLGLRENYFDYWGQGTTLTVSS VL: DIKMTQSPSSMYASLGERVTITCKASQDIKSYLSWFQQKPGKSPKTLIYRVNRLVDGVPSRFSGSGSGQDSSLTITSLENEDMGIYYCLQYDEFPFTFGGGTKLEIKR
–	–	–	–	binds	binds	HE2B8-1 (LR2B8HC + IgG1 G1m(3) allele 1 plus LR2B8LC + Kappa Km(3) allele 1) (antibody, V domains shown) VH: QVQLVQPGAEVVKPGTSVKLSCKASGYTFTTYWMHWVNQAPGQGLEWIGEINPTNGHTNYNEKFKGKATLTVDKSTSTAYMELSSLRSEDTAVYYCARNYVGSIFDYWGQGTLLTVSS VL: DIVMTQSPDSMAMSVGERVTLNCKASENVVSYVSWYQQKPGQSPKLLIYGASNRNTGVPDRFSGSGSATDFTLTISSVQAEDVADYHCGQSYNYPYTFGQGTKLEIKR
–	–	–	–	binds	binds	HE2B8-3 (LRMR2B8HC + IgG1 G1m(3) allele 1 plus LR2B8LC + Kappa Km(3) allele 1) (antibody, V domains shown) VH: QVQLVQPGAEVKKPGTSVKLSCKASGYTFTTYWMHWVRQAPGQGLEWIGEINPTNGHTNYNQKFQGRATLTVDKSTSTAYMELSSLRSEDTAVYYCARNYVGSIFDYWGQGTLLTVSS VL: DIVMTQSPDSMAMSVGERVTLNCKASENVVSYVSWYQQKPGQSPKLLIYGASNRNTGVPDRFSGSGSATDFTLTISSVQAEDVADYHCGQSYNYPYTFGQGTKLEIKR
–	–	–	–	binds	binds	HE2B8-2 (LR2B8HC + IgG1 G1m(3) allele 1 plus LRMR2B8LC + Kappa Km(3) allele 1) (antibody, V domains shown) VH: QVQLVQPGAEVVKPGTSVKLSCKASGYTFTTYWMHWVNQAPGQGLEWIGEINPTNGHTNYNEKFKGKATLTVDKSTSTAYMELSSLRSEDTAVYYCARNYVGSIFDYWGQGTLLTVSS VL: DIVMTQSPDSLAMSLGERVTLNCKASENVVSYVSWYQQKPGQSPKLLIYGASNRESGVPDRFSGSGSATDFTLTISSVQAEDVADYHCGQSYNYPYTFGQGTKLEIKR
–	–	–	–	binds	binds	HE2B8-4 (LRMR2B8HC + IgG1 G1m(3) allele 1 plus LRMR2B8LC + Kappa Km(3) allele 1) (antibody, V domains shown) VH: QVQLVQPGAEVKKPGTSVKLSCKASGYTFTTYWMHWVRQAPGQGLEWIGEINPTNGHTNYNQKFQGRATLTVDKSTSTAYMELSSLRSEDTAVYYCARNYVGSIFDYWGQGTLLTVSS VL: DIVMTQSPDSLAMSLGERVTLNCKASENVVSYVSWYQQKPGQSPKLLIYGASNRESGVPDRFSGSGSATDFTLTISSVQAEDVADYHCGQSYNYPYTFGQGTKLEIKR
binds	binds	binds	binds	binds	binds	anti-hHGF monoclonal antibody 1F3 (antibody, mouse IgG1, kappa, V domains shown) VH: EVQLVESGGGLVQSGGSLKLSCAASGFTFSNYFMSWVRQTPEKRLEWVAYISSGGGSTYYPDSVKGRFTISRDNAKNTLYLQMSSLKSEDTAMYYCVRQGDGYYGDYAMDYWGQGTSVTVSS VL: DIQMTQSPASLSVSVGETVTITCRASENIYSNLAWYQQKQGKSPQLLVYDATHLPDGVPSRFSGSGSGTQFSLKINSLQSEDFGSYYCQHFWGTPYTFGGGTRLEIKR
binds	binds	binds	binds	binds	binds	anti-hHGF monoclonal antibody 1D3 (antibody, mouse IgG1, kappa, V domains shown) VH: EVQLVESGGGLVQPGGSLKLSCAASGFTFSDYYMSWVRQTPEKRLEWVAYISSGGGSTYYPDSVKGRFTISRDNAKNTLYLQMSSLKSEDTAIYYCVRQGDGYYGDYAMDYWGQGTSVIVSS VL: DIQMTQSPASLSVSVGETVTITCRTSENIYSNLAWYQQKQGKSPQLLIYAATNLADGVPSRFSGSGSGTQFSLRINSLQSEDFGRYYCQHFWGTPYTFGGGTKLEIKR

Binder	binding [1]	binding [2]	binding [3]	binding [4]	binding [5]	binding [6]
anti-hHGF monoclonal antibody 1A3 (antibody, mouse IgG1, kappa, V domains shown) VH: EVQLVESGGGLVQPGGSLKLSCAASEFTFSNYYMSWVRQTPEKRLQWVAYISPGGGSSYYPASVKGRFTISRDNAKNTLYLQMSSLKSEDTAMYYCARQGDGYYGDYAMDYWGQGTSVTVSS VL: DIQMTQSPASLSVSVGETVTITCRASENIYSNLAWYQQKQGKSPQLLVYAATNLADGVPSRFSGSGSGTQFSLKINSLQSEDFGTYYCQHFWGTPYTFGGGTKLEIKR	binds	binds	binds	binds	–	–
